Results are given in words; binding and its absence hold for the method and conditions named. In cells and extracts the contact can be indirect. Some results given as binding are weak or reduced against the parent protein; the word gives no strength. Values belong to the substance of their own block, whether it stands above or below them.
Tests used:
[1] = target: Flag-tagged mouse STAT3 (pXJ40-Flag-mSTAT3) (mouse) (UniProt P42227); test: coimmunoprecipitation
[2] = target: Flag-tagged mouse STAT3 (pXJ40-Flag-mSTAT3) (mouse) (UniProt P42227); test: two-way co-IP (anti-Flag and anti-Myc) from leptin-treated 293-OBRb cells
[3] = target: Flag-tagged mouse STAT3 (pXJ40-Flag-mSTAT3) (mouse) (UniProt P42227); test: co-IP with Flag antibody from nuclear extracts, increasing amount of FoxO1
[4] = target: Flag-tagged mouse STAT3 (pXJ40-Flag-mSTAT3) (mouse) (UniProt P42227); test: co-IP with SP1 antibody from leptin-treated 293-OBRb cells, immunoblot with phospho-STAT3 antibody

Protein sequences, listed by entry. Tags and fused reporters are not part of them. Lines headed by an entry give the natural chain unless they say otherwise; changes in a name come on top. Chains listed by the source or under a name are the forms on record and can include a tag or linker. Residues count along the entry.
UniProt P42227: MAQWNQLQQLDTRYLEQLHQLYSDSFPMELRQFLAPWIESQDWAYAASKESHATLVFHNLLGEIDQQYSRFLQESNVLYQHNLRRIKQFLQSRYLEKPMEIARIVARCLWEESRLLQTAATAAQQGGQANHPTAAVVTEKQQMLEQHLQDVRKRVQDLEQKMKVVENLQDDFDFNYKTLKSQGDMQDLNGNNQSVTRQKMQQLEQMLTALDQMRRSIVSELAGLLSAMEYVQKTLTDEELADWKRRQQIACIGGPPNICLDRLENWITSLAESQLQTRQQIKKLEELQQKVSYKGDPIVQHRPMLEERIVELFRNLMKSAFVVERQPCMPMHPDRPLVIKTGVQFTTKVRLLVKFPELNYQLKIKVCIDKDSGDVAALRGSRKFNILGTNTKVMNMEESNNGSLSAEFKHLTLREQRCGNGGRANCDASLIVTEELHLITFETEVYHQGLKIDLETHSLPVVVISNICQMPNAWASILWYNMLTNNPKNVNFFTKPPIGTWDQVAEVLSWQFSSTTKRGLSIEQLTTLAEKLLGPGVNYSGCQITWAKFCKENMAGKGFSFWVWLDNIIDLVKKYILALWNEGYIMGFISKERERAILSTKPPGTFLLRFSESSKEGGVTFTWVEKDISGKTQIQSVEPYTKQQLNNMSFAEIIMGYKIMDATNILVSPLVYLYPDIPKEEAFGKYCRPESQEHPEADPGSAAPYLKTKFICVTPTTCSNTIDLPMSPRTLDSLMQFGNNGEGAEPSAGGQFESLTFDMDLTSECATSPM
UniProt Q9R1E0: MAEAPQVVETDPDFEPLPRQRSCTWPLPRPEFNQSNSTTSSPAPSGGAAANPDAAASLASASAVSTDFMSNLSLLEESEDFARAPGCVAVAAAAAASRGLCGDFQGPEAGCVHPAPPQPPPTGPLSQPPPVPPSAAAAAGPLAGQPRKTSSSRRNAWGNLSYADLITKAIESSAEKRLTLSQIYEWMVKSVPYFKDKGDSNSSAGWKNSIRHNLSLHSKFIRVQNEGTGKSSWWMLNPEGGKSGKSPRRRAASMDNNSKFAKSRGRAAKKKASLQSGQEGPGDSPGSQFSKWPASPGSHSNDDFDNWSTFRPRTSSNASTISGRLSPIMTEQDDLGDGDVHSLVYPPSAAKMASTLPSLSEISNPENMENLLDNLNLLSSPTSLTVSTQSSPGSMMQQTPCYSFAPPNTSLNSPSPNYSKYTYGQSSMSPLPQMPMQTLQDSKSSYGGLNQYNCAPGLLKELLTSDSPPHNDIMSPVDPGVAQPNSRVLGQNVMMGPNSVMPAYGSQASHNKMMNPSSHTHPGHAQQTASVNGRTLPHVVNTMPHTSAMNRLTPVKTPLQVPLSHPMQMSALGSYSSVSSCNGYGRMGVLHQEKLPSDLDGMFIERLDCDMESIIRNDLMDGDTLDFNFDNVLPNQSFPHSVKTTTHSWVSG
FoxO1^(1-167)-(242-652) (Q9R1E0, form named): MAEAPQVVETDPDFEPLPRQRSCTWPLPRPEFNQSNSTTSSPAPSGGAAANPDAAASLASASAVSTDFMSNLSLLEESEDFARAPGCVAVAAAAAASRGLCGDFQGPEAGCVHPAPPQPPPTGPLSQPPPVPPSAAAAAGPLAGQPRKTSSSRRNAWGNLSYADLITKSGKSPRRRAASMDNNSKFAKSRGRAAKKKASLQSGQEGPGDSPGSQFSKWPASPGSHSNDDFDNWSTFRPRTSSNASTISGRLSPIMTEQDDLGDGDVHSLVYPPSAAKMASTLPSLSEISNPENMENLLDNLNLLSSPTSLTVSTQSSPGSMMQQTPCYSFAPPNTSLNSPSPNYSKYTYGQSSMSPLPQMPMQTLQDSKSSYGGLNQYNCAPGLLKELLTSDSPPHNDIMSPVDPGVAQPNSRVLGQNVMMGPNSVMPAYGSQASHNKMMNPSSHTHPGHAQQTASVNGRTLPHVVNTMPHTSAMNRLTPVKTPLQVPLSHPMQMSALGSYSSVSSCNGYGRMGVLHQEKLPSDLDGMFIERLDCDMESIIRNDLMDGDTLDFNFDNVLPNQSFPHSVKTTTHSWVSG
UniProt P08047, residues 2-785: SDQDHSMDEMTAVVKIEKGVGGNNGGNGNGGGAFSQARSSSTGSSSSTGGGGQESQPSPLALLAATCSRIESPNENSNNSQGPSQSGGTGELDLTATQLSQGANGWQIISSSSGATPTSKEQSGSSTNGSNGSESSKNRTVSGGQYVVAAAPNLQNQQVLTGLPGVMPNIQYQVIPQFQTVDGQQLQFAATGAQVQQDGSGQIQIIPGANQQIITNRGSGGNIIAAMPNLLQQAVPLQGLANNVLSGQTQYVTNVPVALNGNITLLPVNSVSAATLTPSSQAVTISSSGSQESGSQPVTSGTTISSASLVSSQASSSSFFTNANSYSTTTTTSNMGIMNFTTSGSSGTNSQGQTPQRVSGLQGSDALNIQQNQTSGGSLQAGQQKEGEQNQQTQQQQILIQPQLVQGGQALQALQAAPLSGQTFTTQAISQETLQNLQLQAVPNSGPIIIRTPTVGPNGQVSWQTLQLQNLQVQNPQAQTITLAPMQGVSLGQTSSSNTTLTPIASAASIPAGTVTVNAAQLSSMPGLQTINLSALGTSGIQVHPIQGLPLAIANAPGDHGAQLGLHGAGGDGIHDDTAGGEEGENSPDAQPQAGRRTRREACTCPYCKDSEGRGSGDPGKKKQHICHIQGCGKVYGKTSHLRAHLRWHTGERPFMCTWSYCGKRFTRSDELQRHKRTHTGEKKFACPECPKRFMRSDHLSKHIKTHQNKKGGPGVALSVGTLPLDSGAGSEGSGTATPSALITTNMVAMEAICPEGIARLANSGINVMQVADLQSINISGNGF

- binding [1]: binds
Substance: FoxO1^(1-167)-(242-652) (from UniProt Q9R1E0 1-167; Q9R1E0 242-652)

- binding [2]: binds
- binding [3]: binds
Substance: Myc-tagged mouse FoxO1 (pcDNA3-Myc-mFoxO1) (from UniProt Q9R1E0 1-652)

- binding [4]: binds
Substance: SP1 (from UniProt P08047 2-785)
